In patent US20260234099A1, “Endocannabinoid ligands and related analogs” (Northeastern University, priority 2023, published 2026):
Some results were stated once for a whole list of compounds, not compound by compound.

Protein sequences, listed by entry. Tags and fused reporters are not part of them.
UniProt P20272, whole entry: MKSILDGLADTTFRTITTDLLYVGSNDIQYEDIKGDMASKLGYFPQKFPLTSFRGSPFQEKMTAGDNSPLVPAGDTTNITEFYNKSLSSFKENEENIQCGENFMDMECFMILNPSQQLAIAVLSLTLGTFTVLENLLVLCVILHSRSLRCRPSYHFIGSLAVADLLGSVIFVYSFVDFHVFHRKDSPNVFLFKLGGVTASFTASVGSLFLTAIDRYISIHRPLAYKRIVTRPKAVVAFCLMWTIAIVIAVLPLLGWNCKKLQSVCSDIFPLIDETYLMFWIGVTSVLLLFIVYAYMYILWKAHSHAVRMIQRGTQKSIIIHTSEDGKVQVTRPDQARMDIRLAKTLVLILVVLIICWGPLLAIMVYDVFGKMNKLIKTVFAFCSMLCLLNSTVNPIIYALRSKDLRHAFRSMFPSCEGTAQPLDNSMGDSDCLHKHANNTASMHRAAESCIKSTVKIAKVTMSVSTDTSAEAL

Biological target: CB1 receptor (rCB1) (Rattus norvegicus, UniProt P20272)
Test: cAMP assay (inhibition of FSK stimulated cAMP), CB1
Format: cell-based
Settings: vs 2-AG, Table 1 cAMP data
Protocol: Further functional characterization of some of the disclosed compounds tested initially for “binding affinity” or for GTPγ-S binding was performed by using the cyclic adenosine monophosphate (cAMP) assay. […] A detailed description of the methods used to test compounds using the cAMP assay is given in Yingpeng, et al. J. Med. Chem. (2018) 61, 8639-8657 the content of which is hereby incorporated by reference. The EC50 values (potency of a test compound) of the functional assays may or may not be accompanied by the E(max) value in tables 1-5 (efficacy of the test compound). E(max)/efficacy is the maximum GTP stimulation or cAMP inhibition levels and is presented as the percentage of maximum response evoked by a standard CB1/CB2 full agonist (e.g., CP-55,940) for reference see the paper cited above.

SMILES | potency fold higher than 2-AG
C[C@H](/C=C\C/C=C\C/C=C\C1CC1C(=O)OC(CO)CO)/C=C\CCCCCO[N+](=O)[O-] (stereo partly drawn) [Compound 5.7.3b, 1,3-dihydroxypropan-2-yl-2-((S,1Z,4Z,7Z,10Z)-9-methyl-16-(nitrooxy)hexadeca-1,4,7,10-tetraen-1-yl)cyclopropane-1-carboxylate] | 10-20 fold
C[C@H](/C=C\C/C=C\C/C=C\CCCC(=O)NC(CO)CO)/C=C\CCCCCO[N+](=O)[O-] [Compound 5.1.6b] | 10-20 fold
